This is one part of the list.
Columns and labels:
Assay in all cases: log2 fold change, soluble protein after heating vs DMSO (PISA); higher = thermal stabilisation; K562 cells, 10 uM, 30 min; active = over 0.2 and 3.5 SD of the protein, either way, in both replicates (recomputed)
[1] = compound: CS(=O)(=O)c1ccc(-c2cnc(N)c(C(=O)Nc3ccccc3)n2)cc1
Method in brief: (§1)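 For each measurement, 10 μM compound was applied for 30 min to K562 cells at 2×10^6 cells/mL. Aliquots were heated for 3 min across 48°C-58°C, pooled, and extracted in PBS with 0.5% NP-40 at 4°C; the supernatant after 21,000xg for 90 min was soluble protein. This was quantified by TMTpro 16plex LC-MS/MS with channel sums equalised, and thermal stability was reported relative to control samples from duplicates, on a log2 fold-change scale.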

By UniProt entry, the sequences of proteins in these tests, tags left out. Where a name states a change or a piece, a line headed by the entry shows the natural chain unless it says otherwise.
UniProt P35613: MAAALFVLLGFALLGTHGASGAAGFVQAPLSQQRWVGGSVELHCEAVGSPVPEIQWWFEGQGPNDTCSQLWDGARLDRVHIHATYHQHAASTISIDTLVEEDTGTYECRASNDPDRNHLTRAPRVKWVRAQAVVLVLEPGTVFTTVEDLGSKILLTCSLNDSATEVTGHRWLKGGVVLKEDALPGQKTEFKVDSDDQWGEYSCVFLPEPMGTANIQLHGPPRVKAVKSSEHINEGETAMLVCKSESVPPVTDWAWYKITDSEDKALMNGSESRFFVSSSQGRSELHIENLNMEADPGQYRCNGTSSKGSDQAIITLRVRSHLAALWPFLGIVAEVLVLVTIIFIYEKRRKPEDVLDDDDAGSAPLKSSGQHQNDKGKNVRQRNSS
UniProt O43683: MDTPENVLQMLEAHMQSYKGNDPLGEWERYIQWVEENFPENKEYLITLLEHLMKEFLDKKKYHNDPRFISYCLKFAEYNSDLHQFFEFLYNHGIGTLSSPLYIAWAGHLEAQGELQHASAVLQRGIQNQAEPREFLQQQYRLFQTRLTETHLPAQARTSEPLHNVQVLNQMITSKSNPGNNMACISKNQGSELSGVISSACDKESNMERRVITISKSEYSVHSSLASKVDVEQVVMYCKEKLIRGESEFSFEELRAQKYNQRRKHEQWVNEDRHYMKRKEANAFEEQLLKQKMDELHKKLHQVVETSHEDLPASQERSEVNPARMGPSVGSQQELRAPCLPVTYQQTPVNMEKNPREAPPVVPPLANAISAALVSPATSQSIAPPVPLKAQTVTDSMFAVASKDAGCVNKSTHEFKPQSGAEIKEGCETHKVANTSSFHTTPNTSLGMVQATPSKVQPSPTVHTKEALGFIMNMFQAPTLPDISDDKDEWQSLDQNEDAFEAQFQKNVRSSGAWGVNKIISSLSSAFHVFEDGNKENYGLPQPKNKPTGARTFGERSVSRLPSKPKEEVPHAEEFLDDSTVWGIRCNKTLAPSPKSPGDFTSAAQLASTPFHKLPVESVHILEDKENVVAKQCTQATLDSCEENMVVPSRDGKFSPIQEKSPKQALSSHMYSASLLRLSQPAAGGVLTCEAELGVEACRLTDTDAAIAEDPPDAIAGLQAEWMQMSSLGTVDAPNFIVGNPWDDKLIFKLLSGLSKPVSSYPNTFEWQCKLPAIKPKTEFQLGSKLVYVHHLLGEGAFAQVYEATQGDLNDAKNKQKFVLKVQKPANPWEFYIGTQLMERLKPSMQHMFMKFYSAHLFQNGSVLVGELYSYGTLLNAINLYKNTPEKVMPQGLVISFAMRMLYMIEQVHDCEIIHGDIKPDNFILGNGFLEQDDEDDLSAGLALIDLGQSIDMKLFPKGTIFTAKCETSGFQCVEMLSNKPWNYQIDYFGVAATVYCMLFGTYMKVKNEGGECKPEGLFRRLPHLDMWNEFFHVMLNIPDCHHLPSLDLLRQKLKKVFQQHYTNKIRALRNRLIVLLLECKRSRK
UniProt P01024, whole entry, looked up: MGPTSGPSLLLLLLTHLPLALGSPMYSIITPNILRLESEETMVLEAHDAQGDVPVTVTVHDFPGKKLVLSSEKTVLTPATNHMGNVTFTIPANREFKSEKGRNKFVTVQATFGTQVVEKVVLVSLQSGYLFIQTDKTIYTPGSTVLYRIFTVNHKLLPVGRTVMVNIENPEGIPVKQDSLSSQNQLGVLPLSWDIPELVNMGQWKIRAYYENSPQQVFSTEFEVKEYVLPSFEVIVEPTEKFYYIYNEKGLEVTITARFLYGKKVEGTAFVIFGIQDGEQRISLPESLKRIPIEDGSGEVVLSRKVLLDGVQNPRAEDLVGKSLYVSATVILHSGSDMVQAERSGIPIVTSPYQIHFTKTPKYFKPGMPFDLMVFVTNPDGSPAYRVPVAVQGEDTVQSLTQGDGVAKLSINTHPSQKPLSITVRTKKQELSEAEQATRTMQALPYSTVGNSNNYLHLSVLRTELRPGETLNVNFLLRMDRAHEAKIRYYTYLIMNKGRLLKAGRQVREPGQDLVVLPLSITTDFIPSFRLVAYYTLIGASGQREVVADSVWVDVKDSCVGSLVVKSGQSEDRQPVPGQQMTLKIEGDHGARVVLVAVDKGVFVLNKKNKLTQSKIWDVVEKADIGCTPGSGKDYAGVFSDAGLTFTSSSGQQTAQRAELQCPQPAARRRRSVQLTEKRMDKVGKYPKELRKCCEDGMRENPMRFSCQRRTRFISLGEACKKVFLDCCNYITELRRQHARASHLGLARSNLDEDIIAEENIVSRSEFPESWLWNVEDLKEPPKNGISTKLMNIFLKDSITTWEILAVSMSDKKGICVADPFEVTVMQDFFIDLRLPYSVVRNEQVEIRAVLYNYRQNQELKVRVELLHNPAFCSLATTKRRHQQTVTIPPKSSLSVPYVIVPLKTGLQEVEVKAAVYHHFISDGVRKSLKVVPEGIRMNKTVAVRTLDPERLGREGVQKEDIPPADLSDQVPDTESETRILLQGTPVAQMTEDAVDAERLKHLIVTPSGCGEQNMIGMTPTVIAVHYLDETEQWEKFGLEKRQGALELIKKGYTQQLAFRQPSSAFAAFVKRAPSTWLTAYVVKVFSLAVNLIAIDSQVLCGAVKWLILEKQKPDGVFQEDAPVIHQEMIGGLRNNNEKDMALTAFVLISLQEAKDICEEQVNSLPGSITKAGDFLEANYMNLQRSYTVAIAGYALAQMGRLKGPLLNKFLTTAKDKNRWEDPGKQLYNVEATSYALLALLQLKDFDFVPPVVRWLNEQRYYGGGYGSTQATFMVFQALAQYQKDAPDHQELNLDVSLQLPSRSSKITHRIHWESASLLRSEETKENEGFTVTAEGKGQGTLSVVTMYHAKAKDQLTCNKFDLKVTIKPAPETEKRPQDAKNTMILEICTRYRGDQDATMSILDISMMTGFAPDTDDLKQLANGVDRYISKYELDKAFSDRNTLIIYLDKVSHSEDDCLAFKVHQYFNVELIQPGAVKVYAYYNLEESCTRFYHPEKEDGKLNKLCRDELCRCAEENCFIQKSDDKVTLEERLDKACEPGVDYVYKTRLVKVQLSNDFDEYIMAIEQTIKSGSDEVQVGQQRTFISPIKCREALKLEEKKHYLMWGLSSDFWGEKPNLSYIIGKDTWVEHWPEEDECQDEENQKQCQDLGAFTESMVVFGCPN
UniProt Q9Y2V2: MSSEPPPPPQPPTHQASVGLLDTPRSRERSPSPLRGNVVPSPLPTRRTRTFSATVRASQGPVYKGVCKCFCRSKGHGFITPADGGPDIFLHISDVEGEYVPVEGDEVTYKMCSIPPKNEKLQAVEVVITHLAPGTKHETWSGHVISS
UniProt Q49AR2: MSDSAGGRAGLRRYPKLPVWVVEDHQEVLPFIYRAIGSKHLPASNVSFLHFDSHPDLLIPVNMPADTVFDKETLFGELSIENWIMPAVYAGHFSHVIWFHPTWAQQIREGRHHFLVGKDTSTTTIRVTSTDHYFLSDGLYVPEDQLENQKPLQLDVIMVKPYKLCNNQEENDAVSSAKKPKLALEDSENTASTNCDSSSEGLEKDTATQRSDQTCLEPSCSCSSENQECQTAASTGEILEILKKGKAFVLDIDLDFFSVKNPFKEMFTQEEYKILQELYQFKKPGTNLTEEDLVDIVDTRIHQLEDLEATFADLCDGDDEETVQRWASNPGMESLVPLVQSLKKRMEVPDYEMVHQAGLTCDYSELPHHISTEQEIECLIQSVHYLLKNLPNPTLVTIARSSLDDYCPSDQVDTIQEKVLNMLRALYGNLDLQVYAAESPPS
UniProt Q9H425: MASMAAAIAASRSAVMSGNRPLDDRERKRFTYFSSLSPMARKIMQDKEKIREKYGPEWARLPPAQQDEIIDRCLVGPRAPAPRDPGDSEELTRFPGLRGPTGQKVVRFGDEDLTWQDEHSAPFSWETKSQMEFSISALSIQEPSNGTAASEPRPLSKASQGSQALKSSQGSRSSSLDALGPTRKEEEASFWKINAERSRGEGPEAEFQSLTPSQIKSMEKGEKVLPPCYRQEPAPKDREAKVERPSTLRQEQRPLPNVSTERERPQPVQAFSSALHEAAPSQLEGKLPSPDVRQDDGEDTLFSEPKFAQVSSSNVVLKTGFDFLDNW
UniProt Q9H7E9: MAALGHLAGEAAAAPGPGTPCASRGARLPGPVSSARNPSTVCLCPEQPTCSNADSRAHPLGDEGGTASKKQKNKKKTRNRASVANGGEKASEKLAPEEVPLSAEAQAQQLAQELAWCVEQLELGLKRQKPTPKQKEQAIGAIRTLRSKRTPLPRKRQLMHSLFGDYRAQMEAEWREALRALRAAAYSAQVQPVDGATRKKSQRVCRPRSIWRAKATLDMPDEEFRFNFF
UniProt P49069: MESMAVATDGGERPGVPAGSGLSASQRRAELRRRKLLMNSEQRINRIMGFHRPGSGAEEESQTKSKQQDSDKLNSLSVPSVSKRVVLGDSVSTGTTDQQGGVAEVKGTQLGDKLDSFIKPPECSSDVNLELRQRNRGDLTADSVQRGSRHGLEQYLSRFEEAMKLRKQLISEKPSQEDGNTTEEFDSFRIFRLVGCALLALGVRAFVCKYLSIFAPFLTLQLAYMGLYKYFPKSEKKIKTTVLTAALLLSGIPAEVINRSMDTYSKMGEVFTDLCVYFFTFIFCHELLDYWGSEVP
UniProt Q96K31: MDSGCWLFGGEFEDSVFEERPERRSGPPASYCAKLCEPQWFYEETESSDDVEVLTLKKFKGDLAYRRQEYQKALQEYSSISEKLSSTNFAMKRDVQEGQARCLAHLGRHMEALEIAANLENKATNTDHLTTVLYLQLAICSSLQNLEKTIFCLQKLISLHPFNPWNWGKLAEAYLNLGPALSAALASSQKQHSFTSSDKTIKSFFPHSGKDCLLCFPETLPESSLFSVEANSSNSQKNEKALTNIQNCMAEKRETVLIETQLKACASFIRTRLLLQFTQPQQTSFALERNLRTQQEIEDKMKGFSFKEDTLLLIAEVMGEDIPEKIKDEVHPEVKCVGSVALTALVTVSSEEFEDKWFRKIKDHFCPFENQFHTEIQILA
UniProt Q8N999, whole entry, looked up: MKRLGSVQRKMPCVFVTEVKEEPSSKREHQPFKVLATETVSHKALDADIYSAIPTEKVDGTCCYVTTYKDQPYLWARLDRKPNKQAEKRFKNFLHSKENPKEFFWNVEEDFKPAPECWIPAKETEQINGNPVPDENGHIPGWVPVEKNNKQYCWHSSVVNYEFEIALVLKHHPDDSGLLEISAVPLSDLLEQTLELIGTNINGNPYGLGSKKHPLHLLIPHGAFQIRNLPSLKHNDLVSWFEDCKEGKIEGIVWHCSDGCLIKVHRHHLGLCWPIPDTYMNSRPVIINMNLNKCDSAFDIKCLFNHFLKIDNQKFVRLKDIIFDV
UniProt Q6P1X6: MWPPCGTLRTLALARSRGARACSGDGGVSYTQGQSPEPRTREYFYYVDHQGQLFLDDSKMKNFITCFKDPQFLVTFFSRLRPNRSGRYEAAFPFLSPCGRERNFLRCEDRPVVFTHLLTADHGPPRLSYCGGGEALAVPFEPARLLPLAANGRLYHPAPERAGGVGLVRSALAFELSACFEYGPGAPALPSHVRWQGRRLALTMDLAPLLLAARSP
UniProt Q01518, whole entry, looked up: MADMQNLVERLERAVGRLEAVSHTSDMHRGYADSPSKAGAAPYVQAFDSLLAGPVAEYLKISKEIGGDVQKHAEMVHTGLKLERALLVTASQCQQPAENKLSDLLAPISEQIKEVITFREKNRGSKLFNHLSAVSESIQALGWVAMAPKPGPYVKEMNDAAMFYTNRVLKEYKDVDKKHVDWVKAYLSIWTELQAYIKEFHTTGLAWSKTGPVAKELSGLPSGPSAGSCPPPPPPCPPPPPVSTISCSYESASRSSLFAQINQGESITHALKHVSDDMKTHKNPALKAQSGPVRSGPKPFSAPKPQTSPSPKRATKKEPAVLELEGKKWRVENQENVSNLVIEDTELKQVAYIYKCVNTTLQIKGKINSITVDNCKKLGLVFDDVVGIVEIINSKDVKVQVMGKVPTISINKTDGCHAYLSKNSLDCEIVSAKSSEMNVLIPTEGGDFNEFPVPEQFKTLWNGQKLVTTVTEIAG
UniProt Q8N6N3: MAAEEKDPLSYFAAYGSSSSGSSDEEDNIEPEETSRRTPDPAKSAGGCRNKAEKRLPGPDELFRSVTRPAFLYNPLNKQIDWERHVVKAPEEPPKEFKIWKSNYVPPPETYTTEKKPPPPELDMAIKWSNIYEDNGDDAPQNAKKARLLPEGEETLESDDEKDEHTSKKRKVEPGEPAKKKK
UniProt P47756, whole entry, looked up: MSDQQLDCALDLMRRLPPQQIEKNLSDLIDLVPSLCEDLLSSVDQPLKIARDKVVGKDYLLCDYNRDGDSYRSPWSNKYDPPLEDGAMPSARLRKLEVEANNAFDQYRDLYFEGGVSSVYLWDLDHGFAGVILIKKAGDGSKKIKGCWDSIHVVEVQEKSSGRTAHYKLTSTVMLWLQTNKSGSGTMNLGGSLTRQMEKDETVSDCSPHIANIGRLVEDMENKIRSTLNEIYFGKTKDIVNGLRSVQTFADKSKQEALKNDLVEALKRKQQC

crizotinib = compound: C[C@@H](Oc1cc(-c2cnn(C3CCNCC3)c2)cnc1N)c1c(Cl)ccc(F)c1Cl [crizotinib]
Method in brief: as §1

[2] = compound: C[C@@H]1COCCN1C2=NC(=NC(=C2)C3(CC3)S(=O)(=O)C)C4=C5C=CNC5=CC=C4
Method in brief: as §1

[3] = compound: C[C@H](C1=CC=C(C=C1)C(=O)NC2=C3C=CNC3=NC=C2)N
Method in brief: as §1

duvelisib = compound: C[C@H](Nc1ncnc2nc[nH]c12)c1cc2cccc(Cl)c2c(=O)n1-c1ccccc1 [duvelisib]
Method in brief: as §1

gandotinib = compound: Cc1cc(Nc2cc(CN3CCOCC3)c3nc(C)c(Cc4ccc(Cl)cc4F)n3n2)n[nH]1 [gandotinib]
Method in brief: as §1

tozasertib = compound: Cc1cc(Nc2cc(N3CCN(C)CC3)nc(Sc3ccc(NC(=O)C4CC4)cc3)n2)n[nH]1 [tozasertib]
Method in brief: as §1

[4] = compound: Cc1cc(SCc2sc(-c3ccc(C(F)(F)F)cc3)nc2C)ccc1OCC(=O)O
Method in brief: as §1

doramapimod = compound: Cc1ccc(-n2nc(C(C)(C)C)cc2NC(=O)Nc2ccc(OCCN3CCOCC3)c3ccccc23)cc1 [doramapimod]
Method in brief: as §1

ispinesib = compound: Cc1ccc(C(=O)N(CCCN)[C@@H](c2nc3cc(Cl)ccc3c(=O)n2Cc2ccccc2)C(C)C)cc1 [ispinesib]
Method in brief: as §1

bafetinib = compound: Cc1ccc(NC(=O)c2ccc(CN3CC[C@H](N(C)C)C3)c(C(F)(F)F)c2)cc1Nc1nccc(-c2cncnc2)n1 [bafetinib]
Method in brief: as §1

[5] = compound: Cc1cccc(CC(=O)N2CCc3c2ccc(-c2cn(C)c4ncnc(N)c24)c3F)n1
Method in brief: as §1

nilotinib = compound: Cc1cn(-c2cc(NC(=O)c3ccc(C)c(Nc4nccc(-c5cccnc5)n4)c3)cc(C(F)(F)F)c2)cn1 [nilotinib]
Method in brief: as §1

[6] = compound: Cc1nc(Nc2n[nH]c3c2CN(C(=O)N[C@H](CN(C)C)c2ccccc2)C3(C)C)c2sccc2n1
Method in brief: as §1

dasatinib = compound: Cc1nc(Nc2ncc(C(=O)Nc3c(C)cccc3Cl)s2)cc(N2CCN(CCO)CC2)n1 [dasatinib]
Method in brief: as §1

[7] = compound: Cc1ncc(-c2ccnc(Nc3ccc(S(C)(=O)=O)cc3)n2)n1C(C)C
Method in brief: as §1

[8] = compound: Cn1cc(-c2ccc3c(c2)CCN3C(=O)Cc2cccc(C(F)(F)F)c2)c2c(N)ncnc21
Method in brief: as §1

[9] = compound: Cn1cc(-c2ccc3nnc(C(F)(F)c4ccc5ncccc5c4)n3n2)cn1
Method in brief: as §1

tipifarnib = compound: Cn1cncc1[C@@](N)(c1ccc(Cl)cc1)c1ccc2c(c1)c(-c1cccc(Cl)c1)cc(=O)n2C [tipifarnib]
Method in brief: as §1

mubritinib = compound: FC(F)(F)c1ccc(/C=C/c2nc(COc3ccc(CCCCn4ccnn4)cc3)co2)cc1 [mubritinib]
Method in brief: as §1

Measured: log2 fold change

BSG (UniProt P35613)
inactive: [1] -0.002 | crizotinib 0.138 | [2] 0.056 | [3] 0.08 | duvelisib 0.107 | gandotinib -0.068 | tozasertib -0.058 | [4] -0.019 | doramapimod 0.004 | ispinesib 0.111 | bafetinib 0.032 | [5] -0.021 | nilotinib 0.063 | [6] -0.029 | dasatinib 0.022 | [7] 0.012 | [8] 0.04 | [9] -0.016 | tipifarnib -0.008 | mubritinib 0.054

BUB1 (UniProt O43683)
inactive: [1] 0.008 | crizotinib -0.196 | [2] 0.098 | [3] 0.163 | duvelisib 0.157 | gandotinib -0.107 | tozasertib -0.107 | [4] -0.047 | doramapimod 0.082 | ispinesib -0.218 | bafetinib -0.013 | [5] -0.101 | nilotinib -0.206 | [6] 0.062 | dasatinib 0.019 | [7] -0.061 | [8] 0.006 | [9] 0.163 | tipifarnib 0.027 | mubritinib 0.057

C3 (UniProt P01024)
inactive: [1] -0.119 | crizotinib 0.123 | [2] 0.018 | [3] 0.148 | duvelisib -0.133 | gandotinib -0.121 | tozasertib -0.049 | [4] -0.122 | doramapimod 0.032 | ispinesib 0.007 | bafetinib -0.103 | [5] -0.012 | nilotinib 0.069 | [6] 0.044 | dasatinib 0.064 | [7] 0.329 | [8] 0.233 | [9] -0.056 | tipifarnib 0.029 | mubritinib -0.156

CARHSP1 (UniProt Q9Y2V2)
inactive: [1] 0.07 | crizotinib 0.022 | [2] -0.026 | [3] -0.05 | duvelisib 0.023 | gandotinib -0.087 | tozasertib 0.029 | [4] -0.007 | doramapimod -0.026 | ispinesib 0.092 | bafetinib 0.07 | [5] 0.015 | nilotinib 0.127 | [6] -0.095 | dasatinib 0 | [7] 0.02 | [8] 0.061 | [9] 0.041 | tipifarnib -0.021 | mubritinib 0.216

C12orf73 (UniProt Q69YU5)
inactive: [1] 0.018 | crizotinib 0.043 | [2] 0.188 | [3] -0.017 | duvelisib 0.069 | gandotinib -0.047 | tozasertib -0.104 | [4] 0.009 | doramapimod -0.015 | ispinesib 0.116 | bafetinib -0.125 | [5] -0.041 | nilotinib 0.013 | [6] -0.056 | dasatinib 0.064 | [7] -0.041 | [8] 0 | [9] 0.138 | tipifarnib 0.027 | mubritinib 0.097

C5orf22 (UniProt Q49AR2)
inactive: [1] 0.019 | crizotinib -0.029 | [2] 0.008 | [3] 0.005 | duvelisib 0.027 | gandotinib 0.005 | tozasertib -0.037 | [4] 0.032 | doramapimod 0.016 | ispinesib -0.019 | bafetinib -0.041 | [5] 0.024 | nilotinib -0.026 | [6] 0.074 | dasatinib -0.089 | [7] -0.024 | [8] 0.107 | [9] 0.009 | tipifarnib -0.053 | mubritinib 0.132

C1orf198 (UniProt Q9H425)
inactive: [1] -0.034 | crizotinib -0.087 | [2] -0.142 | [3] 0.05 | duvelisib 0.03 | gandotinib 0.013 | tozasertib -0.008 | [4] 0.057 | doramapimod 0.078 | ispinesib -0.061 | bafetinib -0.141 | [5] -0.074 | nilotinib 0.026 | [6] -0.039 | dasatinib -0.126 | [7] 0.032 | [8] 0.047 | [9] -0.058 | tipifarnib 0.046 | mubritinib 0

C8orf33 isoform 2 (UniProt Q9H7E9)
inactive: [1] -0.025 | crizotinib 0.218 | [2] -0.58 | [3] 0.703 | duvelisib -0.211 | gandotinib 0.466 | tozasertib 0.13 | [4] -0.012 | doramapimod 0.17 | ispinesib -0.101 | bafetinib 0.249 | [5] 0.02 | nilotinib 0.041 | [6] -0.058 | dasatinib 0.056 | [7] -0.052 | [8] -0.516 | [9] -0.232 | tipifarnib 0.072 | mubritinib -0.336

CAMLG (UniProt P49069)
inactive: [1] -0.027 | crizotinib -0.006 | [2] 0.044 | [3] -0.049 | duvelisib 0.023 | gandotinib 0.049 | tozasertib -0.035 | [4] 0.028 | doramapimod -0.012 | ispinesib 0.018 | bafetinib -0.024 | [5] -0.128 | nilotinib 0.062 | [6] -0.023 | dasatinib 0.029 | [7] 0.025 | [8] 0.008 | [9] -0.019 | tipifarnib 0.157 | mubritinib 0.034

C8orf76 (UniProt Q96K31)
inactive: [1] 0.012 | crizotinib 0.026 | [2] 0.049 | [3] -0.021 | duvelisib -0.027 | gandotinib 0.059 | tozasertib -0.042 | [4] -0.074 | doramapimod 0.009 | ispinesib 0.135 | bafetinib 0.01 | [5] 0 | nilotinib 0.016 | [6] 0.056 | dasatinib 0.026 | [7] 0.008 | [8] 0.025 | [9] -0.042 | tipifarnib 0.054 | mubritinib 0.012

C12orf29 (UniProt Q8N999)
inactive: [1] -0.019 | crizotinib 0.025 | [2] -0.04 | [3] 0.014 | duvelisib 0.053 | gandotinib 0.05 | tozasertib -0.035 | [4] -0.088 | doramapimod 0.015 | ispinesib 0.024 | bafetinib -0.024 | [5] 0.004 | nilotinib -0.051 | [6] 0.018 | dasatinib 0.09 | [7] 0.018 | [8] -0.034 | [9] 0.037 | tipifarnib 0.003 | mubritinib 0.019

C8orf82 (UniProt Q6P1X6)
inactive: [1] 0.034 | crizotinib 0.083 | [2] 0.001 | [3] -0.076 | duvelisib -0.031 | gandotinib 0.004 | tozasertib 0.007 | [4] 0.017 | doramapimod -0.107 | ispinesib 0.03 | bafetinib -0.079 | [5] 0.002 | nilotinib 0.008 | [6] 0.01 | dasatinib 0.022 | [7] 0.013 | [8] 0.057 | [9] 0.053 | tipifarnib 0.05 | mubritinib 0.033

BTF3L4 (UniProt Q96K17)
inactive: [1] 0.008 | crizotinib -0.054 | [2] 0.001 | [3] -0.064 | duvelisib 0.037 | gandotinib 0.01 | tozasertib 0.003 | [4] -0.037 | doramapimod -0.003 | ispinesib 0.037 | bafetinib -0.066 | [5] -0.022 | nilotinib 0.014 | [6] 0.016 | dasatinib 0.045 | [7] -0.003 | [8] 0.017 | [9] 0.024 | tipifarnib 0.014 | mubritinib 0.005

CAP1 (UniProt Q01518)
inactive: [1] 0.063 | crizotinib 0.054 | [2] 0.126 | [3] -0.081 | duvelisib -0.008 | gandotinib -0.07 | tozasertib 0.008 | [4] 0.003 | doramapimod -0.06 | ispinesib 0.096 | bafetinib 0 | [5] 0.003 | nilotinib 0.039 | [6] 0.061 | dasatinib -0.012 | [7] 0.001 | [8] 0.054 | [9] 0.013 | tipifarnib -0.061 | mubritinib 0.077

C1orf52 (UniProt Q8N6N3)
inactive: [1] -0.01 | crizotinib 0.048 | [2] -0.018 | [3] 0.03 | duvelisib 0.041 | gandotinib 0.049 | tozasertib -0.055 | [4] -0.075 | doramapimod -0.023 | ispinesib -0.013 | bafetinib -0.053 | [5] -0.022 | nilotinib 0.001 | [6] -0.008 | dasatinib 0.015 | [7] 0.019 | [8] -0.019 | [9] -0.017 | tipifarnib -0.083 | mubritinib -0.006

Retrieved one by one from above (2):
BTF3L4 (UniProt Q96K17)
inactive: [1] 0.008 | crizotinib -0.054 | [2] 0.001 | [3] -0.064 | duvelisib 0.037 | gandotinib 0.01 | tozasertib 0.003 | [4] -0.037 | doramapimod -0.003 | ispinesib 0.037 | bafetinib -0.066 | [5] -0.022 | nilotinib 0.014 | [6] 0.016 | dasatinib 0.045 | [7] -0.003 | [8] 0.017 | [9] 0.024 | tipifarnib 0.014 | mubritinib 0.005

C12orf29 (UniProt Q8N999)
inactive: [1] -0.019 | crizotinib 0.025 | [2] -0.04 | [3] 0.014 | duvelisib 0.053 | gandotinib 0.05 | tozasertib -0.035 | [4] -0.088 | doramapimod 0.015 | ispinesib 0.024 | bafetinib -0.024 | [5] 0.004 | nilotinib -0.051 | [6] 0.018 | dasatinib 0.09 | [7] 0.018 | [8] -0.034 | [9] 0.037 | tipifarnib 0.003 | mubritinib 0.019

(cont.)

CAPZB (UniProt P47756)
inactive: [1] 0.002 | crizotinib 0.022 | [2] 0.021 | [3] -0.063 | duvelisib 0.028 | gandotinib -0.008 | tozasertib 0.005 | [4] -0.023 | doramapimod 0.002 | ispinesib 0.001 | bafetinib -0.076 | [5] 0.012 | nilotinib 0.012 | [6] 0 | dasatinib 0.023 | [7] -0.001 | [8] 0.014 | [9] 0.058 | tipifarnib -0.024 | mubritinib 0.018

From the supplement of paper PMC10849652
